AC50 data for 64 compounds are collected here from PubChem BioAssay AID493014 (National Center for Advancing Translational Sciences (NCATS), 2011).

This is one part of the list. Shown are side measurements of this screen, not its main read-out; they come without a call. Compounds called inactive in the main read-out are mostly missing here. Potencies come from curve fits of mixed quality, noted in brackets.

A short description of the experiment: qHTS Assay to Find Inhibitors of Chronic Active B-Cell Receptor Signaling. Particulars: ABC-DLBCL IkBa-CBG/CBR reporter, luminescence ratio (green luciferase fused to IkBa over red control in TMD8 lymphoma cells), 4 h. A digest of the protocol: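 TMD8 human ABC-DLBCL cells with doxycycline-inducible IκBα–green luciferase fusion and unfused red luciferase, in 0.5% FBS medium; compounds up to 46 uM, 4 h at 37C. Green/red luminescence ratio, filter-overlap corrected, fitted to concentration-response curves.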
On the technique in general: In qHTS, concentration-response curves come from the screen itself.

[1] abbreviates: measured here: CBR red luminescence, cell number.
[2] abbreviates: measured here: IkBa-CBG green luminescence.

As a reminder, the AC50 is the midpoint of the concentration-response curve, whichever way the signal moves. As for `COc1cccc(Oc2cnc(N)nc2-c2ccc(OC)cc2O)c1`, the AC50 under setting [1] is 23.1 µM [falling, single point]. For `O=C(Nc1ccccc1F)Nc1ccccc1OC(F)F`, under setting [1], the AC50 was 15.8 µM [falling, partial curve, poor fit]. Consider `COc1ccc2[nH]cc(/C=C/C(=O)c3ccccc3)c2c1`, for which, under setting [1], the AC50 was 11.2 µM [falling, single point]. Take `Cc1ccccc1-c1nc(CN2CCC(C(=O)N3CCN(c4ccccn4)CC3)CC2)c(C)o1`: under setting [1], the AC50 was 0.082 µM [rising, full curve, poor fit]. The same measure, in the same setting: under `CCOc1ccc(NC(=O)COc2ccc(C(=O)NCc3cccc(OC)c3)cc2OC)cc1` stands 29.1 µM [rising, single point]; under `CCSc1nnc(NS(=O)(=O)c2ccc(C)cc2)s1`, 5.17 µM [rising, partial curve, poor fit]. In the case of `Nc1nnc(SC2CCCC2)s1`, the AC50 under setting [1] was 14.6 µM [rising, partial curve, poor fit]. Turning to `O=C(N/N=C/c1ccco1)c1ccccn1`, the AC50 under setting [1] is 35.5 µM [falling, single point]. Still for that read-out and setting: under `COc1ccc(CN2CCC(CO)(Cc3ccccc3C(F)(F)F)CC2)c(F)c1` stands 4.47 µM [rising, single point]; under `COc1ccc2c3c(cccc13)N(C)N=C2C`, 35.5 µM [rising, single point]; under `Cc1onc(-c2c(F)cccc2Cl)c1C(=O)NCc1cccs1`, 29.1 µM [rising, single point].

As to `O=S(=O)(N/N=C1\CCCc2ccccc21)c1ccccc1`, the AC50 under setting [1] was 1.16 µM [falling, partial curve, poor fit]. The same measure, in the same setting: under `CC(C)c1ccc(NS(=O)(=O)c2ccc3[nH]cc(C(=O)NCCc4ccccc4)c(=O)c3c2)cc1` stands 10 µM [rising, single point]; under `COc1ccc(CN(C)CC(O)COC(c2ccccc2)c2ccccc2)c(OC)c1OC` (stereo unspecified), 12.6 µM [falling, partial curve, poor fit]. Consider `CCc1ccc2c(COn3nnc4ccc(S(=O)(=O)N(C)C)cc43)cc(=O)oc2c1`, for which the AC50 was 15.8 µM [rising, partial curve] under setting [1] and 20 µM [falling, single point] under setting [2].

For `C/C(=N/NC(=O)c1ccc2c(c1)OCO2)c1cccc([N+](=O)[O-])c1`, the AC50 under setting [1] was 4.47 µM [falling, full curve]. With `Cc1cc(C)cc(N(CC(=O)N2CCC(C)CC2)S(C)(=O)=O)c1`, the AC50 under setting [1] was 13 µM [rising, partial curve, poor fit].

In the case of `O=C(NCC1CCCO1)C1CCC(=O)N1CCc1ccccc1` (stereo unspecified), the AC50 under setting [1] is 14.1 µM [rising, partial curve, poor fit]. Still for that read-out and setting: under `COc1ccc(Cl)cc1NC(=O)C(C)N(C)Cc1cccc(Cl)c1Cl` (stereo unspecified) stands 6.51 µM [rising, partial curve, poor fit].

Turning to `Oc1ccccc1-c1n[nH]c(=S)n1Cc1ccco1`, the AC50 under setting [1] was 16.4 µM [rising, single point]. Take `N/C(=N\OC(=O)CCC1CCCCC1)c1ccccn1`: under setting [1], the AC50 is 0.708 µM [rising, full curve, poor fit]. Consider `O=c1/c(=C/c2ccc(CNS(=O)(=O)c3ccccc3)o2)sc2n1CCN=2`, for which the AC50 under setting [1] was 1.78 µM [falling, full curve, poor fit]. For `Nc1nc(SCc2ccccc2Cl)ns1`, under setting [1], the AC50 was 13 µM [rising, partial curve, poor fit]. For the compound `CCC[C@@H](NS(=O)(=O)c1ccc(C)cc1)C(=O)Oc1ccc2c3c(c(=O)oc2c1)CCC3`, the AC50 under setting [1] was 29.1 µM [falling, single point]. In the case of `COc1cc(NC(=O)c2ccccc2Cl)ccc1NC(=O)c1ccco1`, the AC50 under setting [1] is 20 µM [falling, partial curve, poor fit]. On the same count and under the same terms, next, `CC[C@]12c3[nH]c4ccc(Cl)cc4c3CCN1C(=O)[C@@H](CC(=O)NC(C)(C)C)C[C@@H]2C(=O)N1CCN(C(=O)c2ccco2)CC1`: 8.2 µM [falling, partial curve]. As to `Cc1ccc2c(Cl)cc(Cl)c(OCC(=O)Nc3ccc(C)c(S(=O)(=O)N(C)C)c3)c2n1`, the AC50 under setting [1] was 11.6 µM [rising, partial curve, poor fit].

In the case of `Cc1ccc(N2CC(C(=O)Nc3ncc([N+](=O)[O-])s3)CC2=O)cc1` (stereo unspecified), under setting [1], the half-maximal activity concentration (AC50) was 31.6 µM [falling, single point]. Same read-out and setting: under `CCOC(=O)c1ccc(NC(=O)CNC(=O)C2CCCCC2)cc1` stands 0.891 µM [rising, partial curve, poor fit]; under `CC(=O)Nc1ccc(NC(=O)CSc2nnc(-c3ccco3)n2Cc2ccco2)cc1`, 2.51 µM [rising, single point]; under `CCN1C(=O)c2n[nH]c(C(=O)OC)c2C1=O`, 1.58 µM [falling, partial curve, poor fit].

As to `O=C(NNC(=O)C1CCN(Cc2ccccc2)CC1)c1cccc(Cl)c1`, the AC50 under setting [1] was 29.1 µM [falling, single point]. For `CCCN(C(=O)COC(=O)CC1CCCCC1)c1c(N)n(Cc2ccccc2)c(=O)[nH]c1=O`, the AC50 under setting [1] was 0.092 µM [falling, full curve, poor fit]. Consider `NS(=O)(=O)c1ccc(NC=C2C(=O)OC3(CCCCC3)OC2=O)cc1`, for which, under setting [1], the AC50 is 12.6 µM [rising, single point].

`Cc1cc(N=Nc2ccccc2)c(NCC(O)C(O)C(O)CO)cc1C` (stereo unspecified): under setting [1], the AC50 is 22.4 µM [rising, single point].

As to `CCSc1nc2sc3c(c2c(=O)n1-c1ccccc1C)CCN(C)C3`, under setting [1], the AC50 is 20 µM [rising, single point].

Take `Cn1cc(C(=O)N/N=C/c2ccc3c(c2)OCO3)c2ccccc21`: the AC50 under setting [1] was 14.1 µM [falling, partial curve, poor fit]. `Cc1nc2c3cnn(-c4ccccc4)c3ncn2n1`: the AC50 under setting [1] was 0.116 µM [falling, full curve, poor fit]. Still for that read-out and setting: under `COc1ccc(-c2cc(C(=O)Nc3cc(C)nn3-c3ccccc3)no2)cc1` stands 0.631 µM [rising, full curve, poor fit]; under `Cc1ccc2nc(/C(C#N)=C\c3ccc(N4CCOCC4)o3)[nH]c2c1`, 11.6 µM [falling, single point]; under `O=C(N/N=C\c1cc2c(cc1[N+](=O)[O-])OCO2)c1cccs1`, 35.5 µM [falling, single point]. As to `CCN(C(=O)CSc1nc2nc(C)cc(C)n2n1)c1cccc(C)c1`, the AC50 under setting [1] was 12.6 µM [rising, partial curve]. Turning to `O/C(=C\c1nc2ccccc2[nH]1)c1cccs1`, the AC50 under setting [1] was 35.5 µM [falling, single point]. With `CCOC(=O)c1c(-c2ccc(-c3ccccc3)cc2)csc1NC(=O)CNCCN(C)C`, the AC50 under setting [2] is 35.5 µM [falling, single point]. Regarding `O=C(/C=C/c1ccco1)N(Cc1ccccc1F)C1CCS(=O)(=O)C1` (stereo unspecified), under setting [1], the AC50 was 35.5 µM [rising, single point]. In the case of `Cc1ccc(O)c(C(=O)CC(=O)c2ccc(Cl)cc2)c1`, the AC50 under setting [1] was 0.891 µM [rising, full curve, poor fit].

On to `COc1cc(C(=O)Nc2ccc(C)cc2)c2ccccc2n1`, for which the AC50 runs as follows: under setting [1], 12.6 µM [rising, partial curve, poor fit]; under setting [2], 10 µM [falling, partial curve]. For the compound `CC(=O)Nc1ccc(C(=O)Nc2cc(C(F)(F)F)ccc2-n2cnc3ccccc32)cc1`, the AC50 under setting [1] was 6.51 µM [rising, single point].

Take `OC(CON=C1c2ccccc2-c2ccccc21)CN1CCNCC1` (stereo unspecified): the AC50 under setting [1] was 14.1 µM [falling, single point]. On the same count and under the same terms, under `O=Cc1ccccc1OCc1nnsc1Cl` stands 8.91 µM [rising, partial curve, poor fit]; under `O=C(NCCNC(=O)c1ccc(-c2ccc(Cl)c(Cl)c2)o1)c1cnccn1`, 11.2 µM [rising, partial curve]; under `Cc1ccc(-c2[nH]c3cc(C(N)=O)ccc3c(=O)c2O)cc1`, 4.47 µM [rising, single point]. With `O=C1CN(C(=O)c2ccccc2F)C(c2ccc(F)cc2)c2cc(Br)ccc2N1` (stereo unspecified), the AC50 under setting [1] is 2.82 µM [falling, full curve, poor fit].

As for `COc1ccc(CSCC(=O)N/N=C/c2ccccc2OCc2ccccc2)cc1`, under setting [1], the AC50 was 20.6 µM [falling, partial curve]. With `Fc1ccc(/C=N/Nc2nc3ccccc3[nH]2)cc1F`, the AC50 under setting [1] was 35.5 µM [falling, single point]. For the compound `CCC1(c2ccc(Cl)cc2)NC(=O)N(CC(=O)NC2CCCC(C)C2C)C1=O` (stereo unspecified), under setting [1], the AC50 is 2.06 µM [falling, partial curve]. On to `O=C(c1sc2ccccc2c1Cl)N1CCN(c2ncccn2)CC1`, for which the AC50 under setting [1] is 2.31 µM [rising, partial curve]. As to `CCOC(=O)c1sc(N2C(=O)C(O)=C(C(=O)c3ccco3)C2c2ccco2)nc1C` (stereo unspecified), the AC50 under setting [1] was 5.62 µM [falling, partial curve, poor fit]. `O=C(CCc1nc2ccccc2c(=O)[nH]1)Nc1cc(Cl)ccc1N1CCCC1`: the AC50 under setting [1] was 0.58 µM [rising, full curve]. With `COc1ccc(CCNC(=O)C(NC(=O)OCc2ccccc2)C(C)C)cc1OC` (stereo unspecified), under setting [1], the AC50 was 3.98 µM [rising, full curve, poor fit]. On the same count and under the same terms, next, `COc1ccc(-c2noc(CN(C(=O)c3ccc4c(c3)OCO4)C(C)C)n2)cc1OC`: 6.51 µM [rising, single point].

Turning to `CCOC(=O)N1CCN(C(=S)NC(=O)c2ccc(F)cc2)CC1`, under setting [1], the AC50 was 11.2 µM [rising, partial curve, poor fit]. On the same count and under the same terms, next, `Cc1cc(C)cc(N(C(C)C(=O)NCCC2=CCCCC2)S(C)(=O)=O)c1` (stereo unspecified): 20.6 µM [rising, single point]. `O=C(Nc1ccc(Cl)cn1)c1cc2ccccc2o1`: under setting [1], the AC50 is 6.51 µM [falling, full curve].
